Laboratory results from the supplement of paper PMC3334620.
The full ranking holds about 33,000 sequences; the median of “E-score (-0.5 to 0.5)” is about -0.015, and the highest 2% start at about 0.3. Some of the results follow.

Molecular target: T1, Abf1 (UniProt P14164)
T1 sequence: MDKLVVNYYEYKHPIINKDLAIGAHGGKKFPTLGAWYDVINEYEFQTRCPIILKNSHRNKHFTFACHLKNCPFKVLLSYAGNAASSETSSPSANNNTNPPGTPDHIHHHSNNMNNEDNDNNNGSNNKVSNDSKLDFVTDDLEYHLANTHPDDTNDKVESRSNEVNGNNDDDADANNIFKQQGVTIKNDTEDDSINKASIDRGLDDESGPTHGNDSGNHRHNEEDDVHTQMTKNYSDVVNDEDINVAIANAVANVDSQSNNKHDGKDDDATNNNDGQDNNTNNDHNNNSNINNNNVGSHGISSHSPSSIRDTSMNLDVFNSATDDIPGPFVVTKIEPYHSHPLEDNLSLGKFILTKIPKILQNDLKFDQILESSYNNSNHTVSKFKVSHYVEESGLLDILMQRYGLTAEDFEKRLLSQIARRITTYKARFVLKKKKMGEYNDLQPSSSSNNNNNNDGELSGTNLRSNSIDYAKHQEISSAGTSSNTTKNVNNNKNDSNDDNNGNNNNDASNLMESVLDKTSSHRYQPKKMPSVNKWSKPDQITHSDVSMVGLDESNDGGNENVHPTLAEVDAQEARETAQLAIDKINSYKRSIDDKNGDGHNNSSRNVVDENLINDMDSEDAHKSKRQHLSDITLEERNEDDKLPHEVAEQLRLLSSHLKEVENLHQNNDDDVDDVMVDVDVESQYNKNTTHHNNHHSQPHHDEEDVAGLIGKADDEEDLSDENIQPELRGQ
Experiment: PBM E-score (8-mer binding enrichment) (E-score (-0.5 to 0.5)); higher = stronger / more preferred TF binding
Conditions: protein concentration: 200 nM; construct: GST-full length
Description: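 Universal 'all 10-mer' protein binding microarrays (Agilent AMADID 015681) probed with GST-tagged S. cerevisiae TFs (full-length or DBD) made by in vitro transcription/translation (PURExpress), about 100-200 nM. Bound TF was detected with fluorescent anti-GST. Each ungapped 8-mer (which stands for itself and its reverse complement) is scored by the PBM enrichment score (E-score), a modified Wilcoxon-Mann-Whitney statistic from -0.5 to +0.5, computed with the Universal PBM Analysis Suite. Scale: above 0.35 generally sequence-specific binding.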

| Sequence | PBM E-score |
| --- | --- |
| ATTTAATC | 0.207 |
| GGATGGAA | -0.0799 |
| AATGGCCT | 0.0132 |
| ACATCCGG | -0.21 |
| GCTTGGGA | -0.0764 |
| CGGACGCC | -0.0127 |
| ATCAGCAG | 0.0641 |
| ACAGCGTC | -0.0987 |
| CACTGGAG | -0.245 |
| AGGAGCCT | -0.339 |
| AATGAGTA | 0.0631 |
| ATAGCCAA | 0.034 |
| GCGGTGCA | -0.183 |
| ATTAAATG | 0.208 |
| CTGTACCC | -0.26 |
| GGTAAAGA | 0.0544 |
| GGTTCGCA | -0.0562 |
| CTGGCTTA | -0.00286 |
| AATTTTAA | 0.158 |
| CGTCTGAA | 0.129 |
| CTATTAGC | 0.151 |
| ACGATTTG | 0.169 |
| AAATGCCC | -0.275 |
| ACCTTCCG | -0.171 |
| AACTGGGT | -0.181 |

| Sequence | PBM E-score |
| --- | --- |
| GGTTGTAA | -0.0279 |
| TTCAAGAA | 0.131 |
| CCGAATGC | -0.0115 |
| TCCTAGCA | -0.129 |
| CGGGCCGA | -0.00016 |
| CCTTCCCG | -0.152 |
| GAAGGCCC | -0.198 |
| CTGCCAAG | -0.0177 |
| AGAAAAAG | -0.135 |
| GCGGGGAA | -0.0511 |
| AGGGAAGC | -0.197 |
| TCGAGAAA | 0.0126 |
| AGTCAGGA | -0.124 |
| TAGGAATA | -0.0281 |
| ACTGCTCG | -0.0422 |
| CTATTTAA | 0.00082 |
| ACATAGCA | 0.00829 |
| AGTTAAGG | 0.0186 |
| AGTCTGAG | -0.185 |
| ATCGCGGG | -0.0772 |
| CCAGTACG | 0.0702 |
| GCAGAAGA | 0.0315 |
| AGACATAA | -0.0415 |
| CTACGTGC | -0.0934 |
| ATTTTATG | 0.128 |

| Sequence | PBM E-score |
| --- | --- |
| GTCTTTAA | 0.0512 |
| CCGTATAG | 0.295 |
| AGTCCATC | -0.0761 |
| AATCCCAG | -0.019 |
| CTAGCGAC | 0.153 |
| GTCGCTTA | 0.14 |
| GTGCCCTA | -0.0841 |
| TATCGGAA | 0.181 |
| AACATGAC | 0.146 |
| ACCTGGCT | -0.0275 |
| CGTCGCGA | 0.205 |
| GCAGTATA | -0.00438 |
| TCGGCTCA | 0.0732 |
| GAGTACGA | 0.0499 |
| GCCATGGA | -0.167 |
| GTCCGTGA | 0.191 |
| CGTCAAGC | -0.00097 |
| AGACTGAT | -0.102 |
| GGTCGGTA | -0.0569 |
| CGGGGGCC | -0.357 |
| CACTCTGC | -0.0179 |
| GTGGACCA | -0.0273 |
| CAAGAAGG | -0.104 |
| AATGTTCA | 0.0814 |
| ACTGCTTC | -0.188 |

| Sequence | PBM E-score |
| --- | --- |
| CTAACCAC | 0.129 |
| GATTGCCC | -0.159 |
| CGTTTGTC | 0.129 |
| GATGCACC | -0.0827 |
| AGGACTAG | -0.0252 |
| ATAATAAA | 0.2 |
| CGCTTTGA | -0.131 |
| AGGGGACC | -0.244 |
| TACCATCA | -0.276 |
| GGGTAAGA | -0.0923 |
| CTAATACC | 0.0687 |
| GCCTACTA | -0.137 |
| ATTAGTTG | 0.148 |
| ACTAGTCC | -0.0252 |
| AACTCGCG | 0.211 |
| ACACCAGC | -0.294 |
| ACGCTTAA | 0.017 |
| GCGCAAGC | -0.111 |
| ACTCGGTC | -0.15 |
| TAGACTCA | -0.197 |
| ACTGCTAT | -0.116 |
| CACAGCAA | 0.176 |
| ACCGGTAT | -0.215 |
| CGACTCAA | 0.0184 |
| GTCCCCGA | -0.178 |

| Sequence | PBM E-score |
| --- | --- |
| CGACGTAA | 0.123 |
| ATCCTGAA | -0.0905 |
| AGACATCG | 0.111 |
| CGATTACA | 0.0916 |
| ATGCCAAA | -0.0534 |
| CGGTAAAC | 0.0651 |
| AAGGTGGA | -0.0677 |
| AATGGCGC | -0.282 |
| GCAACGCA | -0.143 |
| CTGGGTGA | -0.0896 |
| GGCGTGTA | -0.0517 |
| ATCGTAAA | 0.234 |
| AAGATAAC | 0.171 |
| TGCCCTAA | -0.186 |
| ACTTTTTA | 0.234 |
| CGGTGTCC | -0.0147 |
| GCAGCGCC | -0.258 |
| ACGTAGCT | 0.0916 |
| ATCCTGTC | 0.235 |
| ATAGCTCA | 0.00251 |
| AACATAGT | 0.0305 |
| CACTAAGA | 0.115 |
| CGGGCCAA | -0.205 |
| GCATAAAC | 0.0635 |
| CACATCAC | 0.244 |

| Sequence | PBM E-score |
| --- | --- |
| AAGAGGAC | -0.357 |
| CTAAGTAC | 0.277 |
| AGCTGATA | 0.0938 |
| AAAAAGAC | -0.0158 |
| TCAGACGA | 0.305 |
| CACCTTTC | 0.0415 |
| AGAGCAAT | -0.111 |
| AAGAGCGG | -0.262 |
| TCACCCGA | 0.184 |
| ATGGTCCC | -0.281 |
| CGGTACTC | -0.104 |
| ATATTTAA | 0.278 |
| GACATTGC | 0.123 |
| CAATGTCC | 0.135 |
| CCATATTC | -0.0785 |
| ATCAGCCC | -0.0285 |
| ACCTTCGG | -0.138 |
| GCTATAAC | -0.109 |
| AGGAAGGC | -0.15 |
| ATGTAACA | -0.0231 |
| AAAGGAAA | 0.0937 |
| CTCGGCGA | 0.162 |
| GTGTTTCA | -0.155 |
| GGGCCACC | -0.258 |
| GCCTGAAC | -0.268 |

Look-ups from the entries so far:
Entry of AAAGGAAA under PBM E-score: 0.0937
Entry of ATGTAACA under PBM E-score: -0.0231
Entry of AAAAAGAC under PBM E-score: -0.0158
Entry of AGGAAGGC under PBM E-score: -0.15
Entry of CAATGTCC under PBM E-score: 0.135
Entry of AAGAGCGG under PBM E-score: -0.262
Entry of GACATTGC under PBM E-score: 0.123

The results go on:

| Sequence | PBM E-score |
| --- | --- |
| CCCCACCC | -0.0997 |
| CCCTACGC | -0.1 |
| CTTCAGAA | -0.179 |
| AGTTTTGA | -0.13 |
| AAATCTAA | -0.0492 |
| GGGATTGA | -0.0352 |
| CGGGGGGC | -0.215 |
| GGGCCCAA | -0.152 |
| CACGTGTC | 0.0235 |
| ACTCCAAC | -0.109 |
| GATCCTCC | -0.178 |
| ACTCTAAT | 0.0975 |
| GCAGCAAA | -0.157 |
| GTGCCAGA | -0.172 |
| ATCGATGG | 0.081 |
| AAGGTTGC | -0.112 |
| AGAGGCCT | -0.117 |
| GGCTCGAC | -0.0785 |
| GCCTCACC | -0.115 |
| TATCTCGA | 0.124 |
| AGTGTAAA | -0.00367 |
| CAGTATGC | -0.0593 |
